Laboratory results as given in article PMC5998028 (Scientific Reports, 2018).
Plain letter strings leave the end groups untold.

Assay: general procedure: Fmoc solid-phase peptide synthesis; HMPB-ChemMatrix resin (from aminomethyl-ChemMatrix, 0.69 mmol/g); HATU/NMM
Details: whole synthesis, overall

KYYGNGVTCGKHSCSVDWGKATTCIINNGALAWATGGHQGNHKC
isolated yield: 55%
